Reference: PubChem BioAssay AID1224830 (NIAID, 2016)

- Screen: 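Genes whose knock-down alters the TNF-alpha reporter response to LPS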 (primary screen)
- Cell system: human THP-1 monocytic leukaemia cells, TNF dual-luciferase reporter clone, PMA-differentiated to macrophage-like cells
- Knock-down reagent: siRNA pool against human genes, 50 nM
- Duration: LPS for 4 h, given about 3 days after siRNA transfection
- Treatment: bacterial LPS (TLR4 ligand), 10 ng/ml
- Measurement: 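TNF firefly reporter luminescence divided by renilla, normalised to the plate median, then turned into a robust z-score for each replicate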
- Reading the numbers: TNF reporter robust z-score: higher = stronger TNF reporter response to LPS
- Hit rule: 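a well is active when its z-score exceeds 2.8 or falls below -1.5; control wells carry no call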
This is one part, drawn at random, of about 18,000 reagents tested. Over the whole deposit, about 2,900 (16%) were called active. 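Calls are made per well; low scores hint the gene aids the LPS response, high scores that it dampens it.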 Entries without a mark were called inactive. Repeated entries: four replicate wells of each siRNA pool.

no.	gene knocked down	PubChem SID	TNF reporter robust z-score
1	CCNI2	SID315465102	0.51
2	CCNI2	SID315465102	0.39
3	CCNI2	SID315465102	-0.06
4	CCNI2	SID315465102	0.44
5	DOT1L	SID315460362	1.91
6	DOT1L	SID315460362	-0.19
7	DOT1L	SID315460362	0.71
8	DOT1L	SID315460362	3.03 (active)
9	GIN1	SID315457188	0.8
10	GIN1	SID315457188	0.64
11	GIN1	SID315457188	0.33
12	GIN1	SID315457188	0.61
13	CHRNA10	SID315458239	-0.85
14	CHRNA10	SID315458239	-0.39
15	CHRNA10	SID315458239	-0.94
16	CHRNA10	SID315458239	0.79
17	LAMA4	SID315449724	-1.08
18	LAMA4	SID315449724	-0.68
19	LAMA4	SID315449724	-1.07
20	LAMA4	SID315449724	-0.83
21	PBRM1	SID315457483	0.22
22	PBRM1	SID315457483	-0.47
23	PBRM1	SID315457483	-0.25
24	PBRM1	SID315457483	0.21
25	NECAP1	SID315455591	0.96
26	NECAP1	SID315455591	3.38 (active)
27	NECAP1	SID315455591	1.98
28	NECAP1	SID315455591	1.49
29	FIP1L1	SID315459911	1.02
30	FIP1L1	SID315459911	-0.18
31	FIP1L1	SID315459911	-0.4
32	FIP1L1	SID315459911	-0.01
33	TAF11	SID315451746	-1.12
34	TAF11	SID315451746	-1.71 (active)
35	TAF11	SID315451746	-1.09
36	TAF11	SID315451746	-0.26
37	ZNF644	SID315460211	5.58 (active)
38	ZNF644	SID315460211	3.35 (active)
39	ZNF644	SID315460211	2.23
40	ZNF644	SID315460211	0.14
41	F2RL2	SID315448602	-0.92
42	F2RL2	SID315448602	0.3
43	F2RL2	SID315448602	-0.81
44	F2RL2	SID315448602	-0.02
45	SMYD4	SID315461258	-1.28
46	SMYD4	SID315461258	0.13
47	SMYD4	SID315461258	0.11
48	CCRL2	SID315452989	-0.5
49	CCRL2	SID315452989	-0.54
50	CCRL2	SID315452989	-0.59
51	NHP2	SID315457743	-0.12
52	NHP2	SID315457743	-0.54
53	NHP2	SID315457743	0.25
54	NHP2	SID315457743	-0.1
55	C11orf58	SID315454476	0.45
56	C11orf58	SID315454476	2.5
57	C11orf58	SID315454476	1.08
58	C11orf58	SID315454476	1.09
59	GNB1L	SID315457092	-0.66
60	GNB1L	SID315457092	0.18
61	GNB1L	SID315457092	-0.58
62	GNB1L	SID315457092	0.54
63	USP44	SID315460190	0.23
64	USP44	SID315460190	-0.41
65	USP44	SID315460190	0.32
66	USP44	SID315460190	-0.12
67	IL20RA	SID315456934	-0.83
68	IL20RA	SID315456934	-1
69	IL20RA	SID315456934	-0.59
70	IL20RA	SID315456934	-0.44
71	UBE2F	SID315462134	0.45
72	UBE2F	SID315462134	-0.34
73	UBE2F	SID315462134	0.24
74	UBE2F	SID315462134	0.01
75	RORA	SID315451157	-1.41
76	RORA	SID315451157	-0.61
77	RORA	SID315451157	-0.75
78	RORA	SID315451157	-0.2
79	MPO	SID315450027	-0.03
80	MPO	SID315450027	0.4
81	MPO	SID315450027	-0.37
82	MPO	SID315450027	1.58
83	RNF215	SID315463031	-1.2
84	RNF215	SID315463031	-0.74
85	RNF215	SID315463031	0.5
86	RNF215	SID315463031	-0.19
87	SPRED2	SID315463044	-1.19
88	SPRED2	SID315463044	-1.24
89	SPRED2	SID315463044	-1.39
90	SPRED2	SID315463044	0.77
91	TMEFF1	SID315452672	0.5
92	TMEFF1	SID315452672	0.57
93	TMEFF1	SID315452672	-0.2
94	TMEFF1	SID315452672	-0.82
95	ZNF175	SID315452265	-0.14
96	ZNF175	SID315452265	0.74
97	ZNF175	SID315452265	-0.38
98	ZNF175	SID315452265	-0.19
99	PTDSS1	SID315453570	-0.9
100	PTDSS1	SID315453570	-0.34
101	PTDSS1	SID315453570	0.79
102	PTDSS1	SID315453570	0.27
103	RSKR	SID315461639	-1.51 (active)
104	RSKR	SID315461639	-1.61 (active)
105	RSKR	SID315461639	-1.05
106	TNN	SID315458770	-1.29
107	TNN	SID315458770	-0.56
108	TNN	SID315458770	-0.85
109	TNN	SID315458770	-1.36
110	BPI	SID315447581	-0.52
111	BPI	SID315447581	-0.03
112	BPI	SID315447581	-0.57
113	BPI	SID315447581	-1.12
114	PADI1	SID315456233	2.39
115	PADI1	SID315456233	-1.01
116	PADI1	SID315456233	-1.6 (active)
117	PADI1	SID315456233	-1.55 (active)
118	RNF10	SID315453677	0.97
119	RNF10	SID315453677	3.26 (active)
120	RNF10	SID315453677	-2.51 (active)
121	RNF10	SID315453677	1.71
122	ARL15	SID315457104	-1.06
123	ARL15	SID315457104	-0.08
124	ARL15	SID315457104	-0.89
125	ARL15	SID315457104	-0.27
126	G6PC1	SID315448787	-1.13
127	G6PC1	SID315448787	-0.92
128	G6PC1	SID315448787	-1.74 (active)
129	G6PC1	SID315448787	-0.11
130	UBL3	SID315450676	-0.97
131	UBL3	SID315450676	0.46
132	UBL3	SID315450676	-0.54
133	UBL3	SID315450676	-0.13
134	FAM120B	SID315460380	0.81
135	FAM120B	SID315460380	-0.28
136	FAM120B	SID315460380	0.15
137	FAM120B	SID315460380	-0.85
138	APOM	SID315457957	-0.72
139	APOM	SID315457957	-0.47
140	APOM	SID315457957	-1.26
141	APOM	SID315457957	-0.75
